# Measurements taken from PubChem BioAssay AID393 (SGCOxCompounds, 2006).
# Protein sequences, listed by entry. Tags and fused reporters are not part of them.
# UniProt P11309, whole entry, looked up: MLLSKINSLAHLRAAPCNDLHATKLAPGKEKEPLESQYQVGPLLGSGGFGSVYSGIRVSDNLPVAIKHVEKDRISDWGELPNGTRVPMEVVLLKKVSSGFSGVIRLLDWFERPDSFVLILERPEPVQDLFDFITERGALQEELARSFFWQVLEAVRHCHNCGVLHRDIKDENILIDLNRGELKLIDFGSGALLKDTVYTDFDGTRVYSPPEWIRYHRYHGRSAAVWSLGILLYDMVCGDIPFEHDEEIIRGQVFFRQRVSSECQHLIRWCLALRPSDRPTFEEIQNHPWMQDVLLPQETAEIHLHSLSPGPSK
# Shown are results outside the selection of hits, which stands elsewhere. Active and inactive are the calls of the source. How the calls were made is not given here.
# Biological target: Serine/threonine-protein kinase pim-1 (Homo sapiens) (UniProt P11309)
# Experiment: compound-induced PIM1 thermal stabilization – biophysical, human, melting temperature shift (AID 393)
# Conditions: Thermal shift assay, at 10 µM, protein 2 µM, buffer 10 mM PIPES, pH 6.5, NaCl 150 mM, active compounds read high
row,Structure (SMILES),Tm shift
1,CCC(CO)Nc1ccc2ncc(-c3cccc(NC(C)=O)c3)n2n1 (configuration not stated),active: 5.07 Celsius
2,CCC(CO)Nc1ccc2ncc(-c3cccc(Cl)c3)n2n1 (configuration not stated),active: 7.52 Celsius
